Values of other authors as cited in patent US20250281461A1 (The Board of Supervisors of Louisiana State University and …, priority 2021, published 2025).
pEC50: −log10 of the molar value.

Tested on: SARS-COV-2 virus
Conditions: read-out: EC50 for the inhibition of SARS-COV-2 virus; initial estimates; cited from earlier work

SMILES: Cc1ccc(NC(=O)c2ccc(CN3CCN(C)CC3)cc2)cc1Nc1nccc(-c2cccnc2)n1 [Imatinib]
- pEC50: ~5.60
